Measured values taken from PubChem BioAssay AID445 (National Center for Advancing Translational Sciences (NCATS), 2006).
Where “and” joins values, the source holds several entries; their conditions need not be identical. Identical values can stand only once. This is one part of the list. Shown are side measurements of this screen, not its main read-out; they come without a call. The list favours compounds with an active or inconclusive main result. Words in brackets tell the shape of the fitted curve; partial curves, single points and poor fits give uncertain potencies.

Assay: IkB Signaling
Conditions: ABC-DLBCL IkBa-CBG/CBR dual luciferase ratio (green luciferase fused to IkBa over red control in OCI-Ly3 lymphoma cells), 4 h
How it was run: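 In this assay, an IκBα–CBG68 fusion accumulates when IKK-driven degradation is blocked; native CBR normalizes for cell number. OCI-Ly3 cells were treated 4 h with compound and doxycycline, then green and red light read after Chroma-Glo addition.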

[1] = measured here: control luc red channel
[2] = measured here: IkB-luc green channel

Compound	AC50 [1]	AC50 [2]
COc1ccc(OC)c(CCNCc2c(C(=O)O)c(C)n(Cc3ccc(F)cc3Cl)c2C)c1	31.6 µM [falling, single point]	
Cc1cc(OCC(=O)N2CCN(CCc3ccncc3)CC2)cc(C)c1Cl	39.8 µM [falling, partial curve]	
COc1ccc(NC(=O)CCc2nc(C3=CCN(Cc4cccc(C)c4)CC3)no2)c(OC)c1	2.51 µM [falling, partial curve]	
CCNC(=O)[C@@H]1O[C@@H](n2cnc3c(N)ncnc32)[C@@H](O)[C@H]1O	0.0158 µM [rising, full curve]	0.01 µM [rising, full curve, poor fit]
CCCCn1c(N)c(C(=O)NCCN2CCOCC2)c2nc3ccccc3nc21	25.1 µM [falling, partial curve]	
Cc1cccc(-n2c(/C=C\c3cccc(Br)c3)nc3ccccc3c2=O)c1	3.16 µM [rising, partial curve]	
CC1=CC(=O)NP(=O)(Oc2ccc3ccccc3c2)N1 (centres undefined)		31.6 µM [rising, partial curve]
O=C(CCl)c1ccccc1		20 µM [rising, partial curve]
COc1ccc(C2CC(=O)Oc3c2c(=O)oc2ccccc32)c(OC)c1OC (centres undefined)	25.1 µM [falling, single point]	
O=C1C2CC=CCC2C(=O)N1SC(Cl)(Cl)Cl (centres undefined)	3.98 µM [falling, partial curve] and 3.16 µM [falling, full curve]	
C[C@H]1CCCC(=O)CCCCCc2cc(O)cc(O)c2C(=O)O1	25.1 µM [falling, single point]	
FC(F)(F)c1ccc2c(c1)nnn2C1CCN(Cc2nnnn2Cc2ccccc2)CC1	25.1 µM [falling, partial curve]	
CCCCCCCCCOc1ccc2[nH]cc(CCN)c2c1	39.8 µM [falling, partial curve]	
Clc1ccc(COC(Cn2ccnc2)c2ccc(Cl)cc2Cl)cc1 (centres undefined)	15.8 µM [falling, partial curve]	
CN(C)C=C1C(=O)N(C2CCCCC2)C(=O)N(C2CCCCC2)C1=O	15.8 µM [falling, partial curve]	
Cc1nn(Cc2ccccc2)c(C)c1C(=O)OCC(=O)Nc1ccccc1SCC#N	12.6 µM [falling, partial curve]	
COc1ccc(C2=NCC(=O)N(CC(=O)NCc3ccco3)c3sc4c(c32)CCCC4)cc1	15.8 µM [falling, partial curve]	
CCC(C)NC(=O)c1c(N)n(CCCOC)c2nc3ccccc3nc12 (centres undefined)	15.8 µM [falling, partial curve]	
